Hit rate of the full screen: of about 320,000 compounds, about 22,000 (6.9%) were called active. The shares of active, inactive and inconclusive entries below differ from those in the screen. The call rests on the fitted dose curve; in most records, active means well fitted inhibition curve with a large enough effect; inconclusive means small, poorly fitted or top-dose-only effect, or another doubt; inactive means no such curve, though single readings can be large or run the other way. Potencies of inconclusive entries are doubtful fits and often do not repeat. Where a SMILES comes first, the peptide text is derived from it. Bridges are numbered along the chain shown (N, C = ends). [ ]: non-standard residue; d: D form. The star is where a group is joined. ξ: configuration not given here. ξDab(CH2SO3H) = NC(CCNCS(=O)(=O)O)C(=O)O; Heptanoyl(6-Me) = CC(C)CCCCC(=O)*; Dab = NCC[CH](N)C(=O)O
Experiment: Primary qHTS for delayed death inhibitors of the malarial parasite plastid, 96 hour incubation
Settings: P. falciparum luciferase reporter growth; series mostly up to 28.7 µM
Method in brief: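 Cell-based qHTS: luciferase-tagged P. falciparum in erythrocytes (2% hematocrit, 0.05% parasitemia final) incubated with compounds for 96 hours, 37 C, 5% CO2; luciferase detection reagent then added and luminescence measured.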
For `COc1ccc(OCc2nnc3n2N=C(c2ccc(Br)cc2)CS3)cc1`, the Potency was inconclusive: 9.28 µM [inhibitor, single point]. For `O=c1oc(-c2ccccc2)nc2c1cnn2-c1ccccc1`, the Potency was inconclusive: 16.5 µM [inhibitor, single point]. With `CCCCNC(=O)c1nn2cc(Br)cnc2c1Br` the Potency was inconclusive: 11.7 µM [inhibitor, single point]. With `Cc1cc(C(=O)OCC(=O)Nc2c(Cl)cccc2C(F)(F)F)c(C)o1` the Potency was “inactive”. In the case of `CC1CN(C(=O)/C(C#N)=C2\N=C(NC(=O)c3ccc(F)cc3)c3ccccc32)CC(C)O1` (stereo not given), the Potency is reported as “inactive”. For `CCN(CC)S(=O)(=O)N1CCC(C(=O)NCc2ccco2)CC1`, the Potency was “inactive”. For `Cc1cc(C(=O)CN2C(=O)NC3(CCCCC3)C2=O)c(C)n1Cc1ccco1`, the Potency was “inactive”. For `O=[N+]([O-])c1cccc2c([As](=O)(O)O)cccc12`, the Potency was active: 0.465 µM. For `Ic1ccc(N2CCN(Cc3c[nH]c4ncccc34)CC2)cc1`, the Potency was inconclusive: 16.5 µM [inhibitor, partial curve, poor fit]. In the case of `Cc1ccc(C(=O)c2c(C)oc3c2C(=O)C(=O)c2ccccc2-3)cc1`, the Potency is reported as inconclusive: 0.117 µM [inhibitor, full curve, poor fit]. In the case of `C=CCOc1c(Br)cc(/C=C2/C(=O)ON=C2C)cc1OC`, the Potency is reported as “inactive”. In the case of `CCCNC(=O)CN(C)S(=O)(=O)c1ccc(F)cc1`, the Potency is reported as “inactive”. For `CCOc1ccccc1CNC(=O)c1ccc(NC(=O)C2=C(C)OCCS2)cc1`, the Potency was active: 6.57 µM. For `COc1cccc(C2C3=C(N=c4s/c(=C\c5ccc(O)cc5)c(=O)n42)c2ccccc2CC3)c1OC` (stereo not given), the Potency was active: 13.1 µM. For `O=C1CN(c2nc(-c3cccs3)nc3sc4c(c23)CCCC4)CCN1`, the Potency was inconclusive: 13.1 µM [inhibitor, single point]. With `Cc1ccsc1/C=N/NC(=O)CC(=O)NCC(C)C` the Potency was “inactive”. For `O=c1c2ccccc2[nH]c(=S)n1Cc1ccccc1`, the Potency was inconclusive: 18.5 µM [inhibitor, single point]. For `O=[N+]([O-])c1cc(S(=O)(=O)O)cc([N+](=O)[O-])c1NN(c1ccccc1)c1ccccc1`, the Potency was “inactive”. For `CS(=O)(=O)N(CC(=O)Nc1ccccc1Sc1ccccc1)c1cccc(Br)c1`, the Potency was inconclusive: 11.7 µM [inhibitor, single point]. In the case of `COC(=O)C1=C(c2ccc3ccccc3c2)C[C@@H]2CC[C@H]1N2C(=O)N1CCOCC1`, the Potency is reported as inconclusive: 14.7 µM [inhibitor, single point]. With `CN1CCN(CC(=O)Nc2ccccc2C(F)(F)F)CC1` the Potency was inconclusive: 18.5 µM [inhibitor, single point]. For `Cc1cccc(NC(=O)Nc2ccc(Oc3c(F)c(F)c(F)c(F)c3F)cc2)c1`, the Potency was active: 7.38 µM. In the case of `Cc1cc(C)cc(NS(=O)(=O)c2c(C)[nH]c(=O)[nH]c2=O)c1`, the Potency is reported as active: 2.08 µM. In the case of `COc1ccc(NC(=O)Nc2cccc(Cl)c2Cl)c(OC)n1`, the Potency is reported as active: 9.28 µM. With `COc1ccc(NC(=O)C2CCCN(C(=O)Nc3cccc(OC)c3)C2)cc1` (stereo not given) the Potency was inconclusive: 8.28 µM [inhibitor, partial curve, poor fit]. For `CCOC(=O)c1c(C)oc2ccc(OCC(=O)N(CC)CC)cc12`, the Potency was “inactive”. With `CCC(C)C1NC(=O)C(CCNCS(=O)(=O)O)NC(=O)C(NC(=O)C(CCNCS(=O)(=O)O)NC(=O)C(NC(=O)C(CCNCS(=O)(=O)O)NC(=O)CCCCC(C)C)C(C)O)CCNC(=O)C(C(C)O)NC(=O)C(CCNCS(=O)(=O)O)NC(=O)C(CCNCS(=O)(=O)O)NC(=O)C(C(C)CC)NC1=O` (stereo not given) ({Heptanoyl(6-Me)}-[ξDab(CH2SO3H)]T[ξDab(CH2SO3H)][Dab][ξDab(CH2SO3H)]II[ξDab(CH2SO3H)][ξDab(CH2SO3H)]T; lactam 4-C; configuration not given here) the Potency was inconclusive: 19 µM [inhibitor, single point]. In the case of `Cc1nn2c3c(cnc2c1-c1ccccc1)C(=O)CC(c1ccccc1)C3` (stereo not given), the Potency is reported as inconclusive: 10.4 µM [inhibitor, partial curve]. For `CCN(CC)CCn1c(=S)[nH]c2cc(C(=O)NCc3ccc(C)cc3)ccc2c1=O`, the Potency was inconclusive: 18.5 µM [inhibitor, single point]. With `CC(=O)NC(Cc1ccc(N(CCCl)CCCl)cc1)C(=O)NC(CC(C)C)C(=O)O` (stereo not given) the Potency was active: 10.4 µM. In the case of `COc1ccc(Oc2ccc(N/C=C3\CCCC3=O)cc2)cc1`, the Potency is reported as inconclusive: 14.7 µM [inhibitor, partial curve, poor fit]. With `O=[N+]([O-])c1ccc(CNc2cccc(F)c2)s1` the Potency was inconclusive: 18.5 µM [inhibitor, single point]. For `CC(NC(=O)c1ccccc1)C(=O)N/N=C/c1ccc(O)cc1` (stereo not given), the Potency was inconclusive: 3.7 µM [inhibitor, full curve, poor fit]. With `COc1cc(CCC(=O)N2CCN(c3cccc(C)c3C)CC2)cc(OC)c1OC` the Potency was inconclusive: 7.38 µM [inhibitor, partial curve, poor fit]. For `COc1ccc(C(=O)N(Cc2nc(-c3ccc(C)cc3)no2)C(C)C)cc1OC`, the Potency was inconclusive: 8.28 µM [inhibitor, single point]. For `CCC(=NCc1cc(OC)cc(OC)c1)c1c(O)n(C2CCCCC2)c(=O)[nH]c1=O`, the Potency was active: 0.828 µM. For `COc1ccc(C2(O)CCN(Cc3nnnn3Cc3ccc(C)cc3)CC2)cc1`, the Potency was inconclusive: 0.415 µM [inhibitor, full curve, poor fit]. In the case of `Cc1c(C(=O)OCC(=O)NCCc2ccc(S(N)(=O)=O)cc2)oc2ccccc12`, the Potency is reported as inconclusive: 18.5 µM [inhibitor, single point]. For `CCCn1nnnc1SCC(=O)N1CCCc2ccccc21`, the Potency was “inactive”. In the case of `CCCCn1c(=O)[nH]c(=O)c2c1nc(-c1ccc(OC)c(Br)c1)n2CC(C)C`, the Potency is reported as active: 2.08 µM. In the case of `COc1ccccc1-c1cc(C(=O)NCc2cccs2)no1`, the Potency is reported as active: 3.7 µM. In the case of `Cc1nnc(NN)n(N)c1=O`, the Potency is reported as inconclusive: 18.5 µM [inhibitor, single point]. In the case of `C=Cc1ccc(Cn2c(=O)n(C)c(=O)c3sccc32)cc1`, the Potency is reported as inconclusive: 18.5 µM [inhibitor, single point]. With `NC(=O)COC(=O)CNC(=O)c1sc2ccccc2c1Cl` the Potency was “inactive”. For `CC1(NC(=O)NCc2ccccc2)CCS(=O)(=O)C1` (stereo not given), the Potency was inconclusive: 11.7 µM [inhibitor, single point]. With `CCOc1ccc(Br)cc1S(=O)(=O)Nc1ccc(NC(=O)c2ccccc2F)cc1` the Potency was “inactive”. In the case of `Cc1ccccc1-n1cc(C(=O)c2cc(Cl)ccc2O)cc(C#N)c1=O`, the Potency is reported as active: 2.62 µM. In the case of `CCOC(=O)c1[nH]c2ccc(OC)cc2c1NC(=S)N1CCN(c2cccc(C)c2C)CC1`, the Potency is reported as “inactive”. In the case of `Cc1sc2nc(SCC(=O)NCc3ccco3)n(CCc3ccccc3)c(=O)c2c1C`, the Potency is reported as “inactive”. With `Cc1ccc(NC(=O)c2cc(-c3cc(C)c(C)cc3O)n[nH]2)cc1C` the Potency was active: 2.62 µM. With `COC(=O)C1=C(C(=O)OC)[C@@H]2N(C)c3ccc(OC)cc3[C@@]23C[C@@H](C(=O)OC)N(S(=O)(=O)c2ccc(OC)cc2)C3=N1` the Potency was inconclusive: 11.7 µM [inhibitor, single point]. For `CC(=O)N(c1ccc(C)cc1)S(=O)(=O)c1ccc(Cl)cc1`, the Potency was “inactive”. In the case of `COc1cc(/C=C/C(=O)OCC(=O)N(C)CC(=O)Nc2ccc(F)cc2)ccc1OC(F)F`, the Potency is reported as “inactive”. For `CC(CCc1ccccc1)NC(=S)NC(=O)c1ccco1` (stereo not given), the Potency was inconclusive: 18.5 µM [inhibitor, single point]. In the case of `O=C(Nc1nnc(C2=COCCO2)o1)c1cccc(C(F)(F)F)c1`, the Potency is reported as inconclusive: 13.1 µM [inhibitor, partial curve]. In the case of `CCOC(=O)c1c(N)n(CCCOC(=O)c2ccco2)c2nc3ccccc3nc12`, the Potency is reported as inconclusive: 8.28 µM [inhibitor, single point]. With `O=C(c1ccc(NC2=NC3CS(=O)(=O)CC3S2)cc1)N1CCN(c2ccc(F)cc2)CC1` (stereo not given) the Potency was “inactive”. In the case of `CCN1CCN(c2ncc(C(=O)N3CCCc4ccccc43)c3ccccc23)CC1`, the Potency is reported as active: 11.7 µM. In the case of `COc1ccc(C(C)=O)cc1COC(=O)CCNS(=O)(=O)c1ccc(C)c(C)c1`, the Potency is reported as inconclusive: 18.5 µM [inhibitor, single point]. For `COc1ccc(-c2c(C)nn3c(-c4ccccc4)cc(C)nc23)cc1`, the Potency was inconclusive: 13.1 µM [inhibitor, single point]. In the case of `COc1ccc(-c2nc(CSCC(=O)NCCCN3CCCC3=O)c(C)o2)cc1OC`, the Potency is reported as “inactive”. For `O=C(CN1CCN(Cc2ccccc2Cl)CC1)N/N=C/c1ccco1`, the Potency was “inactive”. In the case of `CCN(CC)S(=O)(=O)c1cc(C(=O)OCC(=O)NC(=O)c2cccn2C)ccc1C`, the Potency is reported as “inactive”. In the case of `COc1ccc(C)cc1S(=O)(=O)N(CC(=O)NC1CCCC1)c1ccc(F)cc1`, the Potency is reported as active: 9.28 µM. In the case of `NNC(=O)c1ccc(COCC(F)(F)C(F)F)cc1`, the Potency is reported as “inactive”. With `Cc1ccc(OCC(=O)Nc2ccc(C)c(S(=O)(=O)N3CCCCCC3)c2)c([N+](=O)[O-])n1` the Potency was inconclusive: 7.38 µM [inhibitor, partial curve, poor fit]. For `COC(=O)C1CCN(c2ccc(Cl)nn2)CC1`, the Potency was inconclusive: 0.928 µM [inhibitor, partial curve, poor fit]. In the case of `O=C1CC(c2ccccc2)n2nc(N3C(=O)CCC3=O)nc2N1` (stereo not given), the Potency is reported as inconclusive: 10.4 µM [inhibitor, partial curve, poor fit]. With `Cc1nnc(NC(=O)c2ccncc2)s1` the Potency was inconclusive: 18.5 µM [inhibitor, single point]. For `C=CCNC(=O)c1oc2ccc(S(=O)(=O)N3CCCCC3)cc2c1C`, the Potency was inconclusive: 18.5 µM [inhibitor, single point].

Source: PubChem BioAssay AID504834 (National Center for Advancing Translational Sciences (NCATS), 2011)
Potency means the concentration at half of the fitted maximal effect.
